Results are given in words; binding and its absence hold for the method and conditions named. Some binding calls cover weakened binding; strength is not graded here. For some assays here: Sequences can lack the tags named with a protein.
T1: MBP-PDZ fusion protein (mammalian (so in the source)) (UniProt P57105)
T1 sequence (looked up): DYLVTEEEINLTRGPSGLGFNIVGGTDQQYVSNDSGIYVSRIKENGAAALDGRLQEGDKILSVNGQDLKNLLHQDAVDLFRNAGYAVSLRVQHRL


Experiments:
[1] = target: glutathione S-transferase [GST: P08515]; experiment: beads-binding assay, GST-coupled resin
[2] = target: T1, MBP-PDZ fusion protein (mammalian (so in the source)); experiment: beads-binding assay, MBP-PDZ-coupled resin

binding [1] | binding [2] | Binder
binds |  | G60 (VHH) VHH: QMGRNSAEVQLVESGGSLRLSCAASGSGFSSSIIAWYRQAPGKQRELVAAIGGPGSTNYADFVEGRFTISRDNAKNTGYLQMNNLNPEDTAVYYCNEVTRSGREYWGQGTQVTVSS
 | binds | P12 (VHH) VHH: MASMTGGQQMGRNSAQVQLVESGGGLVQAGGSLRLSCTASGRTFSTYTMAWFRQAPGKEREFVAAISWSGAYYAESVKGRFTISRDNAKNTVYLQMNSLKPEDTAVYYCAAVIGSTVDSYSPSDPLEYDYWARGPRSPSEPKTPKGGCGGGLEHHHHHH

— US20230176070A1
